Test results published in patent US9068161B2, “Laccases and uses thereof” (DEINOVE, priority 2010, dated 2015).

Tests used:
Format in all cases: biochemical
[1] = Laccase assay, substrate ABTS; details: 60° C.
Description: (§1) Standard assays for laccase activity were performed at the temperature range from 30° C. to 90° C. by measurement of enzymatic oxidation of substrates at appropriate wavelength. The reaction was performed in presence of a substrate concentration range, 0.05 mg/mL of purified enzyme and 1 mM prepared in 0.1M citrate-phosphate buffer pH8.
(§2) Standard assays were performed using the following substrates: 2,6 DMP, 4-methyl DMP, synapic acid, syringic acid, guaiacol, ABTS, paraphenylenediamine and ferulic acid.
(§3) Reagent A (185 μl) was mixed with Reagent B (10 μl). The mixture was equilibrated to 45° C. or 60° C. The absorbance at 470 nm was monitored until constant, using a suitably thermoregulated spectrophotometer. Then Reagent C (5 μl) was added and the increase in A470 nm was recorded for 30 minutes. The ΔA470 nm/minute was obtained using the maximum linear rate for the Test, Control and Blank, Blank being mixture without enzyme and Control being mixture with laccase from Trametes versicolor (T. versicolor, commercial enzyme) replacing Laccase enzyme solution (Reagent C).
(§4) Other substrates, different from 2,6 DMP such as 4-methyl DMP, synapic acid, syringic acid, guaiacol, ABTS, paraphenylenediamine and ferulic acid have also been tested at optimal concentration for each substrate (as shown in Tables 1A and 1B). […]

[2] = Laccase assay, substrate guaiacol; details: 60° C.
Description: as §1, §2, §3, §4

[3] = Laccase assay, substrate synapic acid; details: 45° C.
Description: as §1, §2, §3, §4

[4] = Laccase assay, substrate ferulic acid; details: 60° C.
Description: as §1, §2, §3, §4

[5] = Laccase assay, substrate paraphenylenediamine; details: 45° C.
Description: as §1, §2, §3, §4

[6] = Laccase assay, substrate syringic acid; details: 60° C.
Description: as §1, §2, §3, §4

[7] = Laccase assay, substrate 2,6 DMP; details: 60° C.
Description: as §1, §2
2,6 DMP+O2+enzyme→Oxidized 2,6 DMP+2H2O
The assay is performed at T=45° C. and 60° C., pH=8. The absorbance was measured at A470 nm and the measure was carried out using Continuous Spectrophotometric Rate Determination.
as §3, with “C). […]” for “C).”

Measured: Opt. pH

B1: Laccase 2: enzyme having laccase activity from Deinococcus cellulolysiticus DRH46, amino acid sequence SEQ ID NO: 4, recombinant with 6(His) tag (protein)
chain: MIRTLTSLTLLTVALTACAPKGSPMTEYHNPAEVQASRTEKGSTFTLTAAETSITLDGKEVKAQLFNQSFPGPQLTLQAGEQVNLTLKNDLREPTNLHLHGLTLPAGVDDPFLQVQPGESHTYSFTVPQGLHGTFWYHTHTHGHLGTQLFQGLAGPLIVEDPTFDSHIQGMETHTVVLKDLPVEVQDSDGTRMNGREGKLLVNGLSSPTLKTESSWVRLRLINASNARYDLLKLSGSAFLHVIAKDGIDLPKTEQVKELLLTPGERADVLISVQDQQDLRLENHPYDRGVHEMDGGHQGHTPSTPEVLLTLQGKKGSVSASVPQPALQPRPFLKVTGNEAIRKVVLQETMQPVKFFINGRTFDMNRVDFHVSEGTTEIWEVENQTEMDHPFHLHTFPVQVLSVNGQEVPPVWKDTVNVPAKAKVQVAVKFEGFTGKTVFHCHIAEHEEEGMMGVLQVHPAGEALPASLTPTLPPAAASEDMPDMPGMDHSGH
modifications: 6xHis tag; Laccase 2 derived from Deinococcus cellulolyticus DRH46
8: [1] | [2] | [3] | [4] | [5] | [6] | [7]

B2: Laccase 1: enzyme having laccase activity from Deinococcus cellulolysiticus DRH46, amino acid sequence SEQ ID NO: 2, recombinant with 6(His) tag (protein)
chain: MKQRLTAAALLTALLSSCAMKNPDVISYQDPEPLAGQRSGKAAEFTLTAQKSRLDLAGQSVEALTYNGTFPGPLLTLKAGEDVRITLKNNLSEPTNLHLHGLPLSPEVDDPFVVVPPGGSHTYAFQVPEEVHGTFWYHTHTHGASAAQLFSGLAGPLLVEAAKPNNPIEHMETHTVVFKDLPGAQHADDGVLMNGRENTLLVNGLVSPTLKTENSWVQLRLINASNARYLRLKLDDGLLQVVARDGIDLPGMERAQELLLTPGERADVLVSLQDHQNLKLQNLPYDRGVHSMGSHSGHTESKTAVVLTLQGPQKPGASVPRVETAPPPFLQLQGNEKVRKVILQETMQPVKFFINGRSFDMNRVDFHVSEGSTEIWELQNTTEMDHPFHLHTFPMQLIRIGGKEVPPVWKDTVNIPKNSTVTVAVHFKGFTGKTVFHCHIAEHEEAGMMGLLQVHPSGTALPASLEPIEPTVGPGEDAQHGH
modifications: 6xHis tag; Laccase 1 derived from Deinococcus cellulolyticus DRH46
8: [1] | [2] | [3] | [4] | [5] | [6] | [7]
